# Results from the supplement of paper PMC8426693.
# The other results are listed elsewhere or left out.
# Key:
# Test in all cases: NMR binding call after quantification (hit when 2 of 3 NMR criteria are met) (binary (1 = binding, 0 = not binding)); higher = binding
# Conditions in all cases: RNA concentration 10 µM; fragment concentration 200 µM; 293 K
# SARS-CoV-2 5_SL7 RNA = system: SARS-CoV-2 5_SL7 RNA
# SARS-CoV-2 5_SL8 RNA = system: SARS-CoV-2 5_SL8 RNA
# [1] = system: SARS-CoV-2 attenuator hairpin (att HP) RNA
# [2] = system: SARS-CoV-2 frameshift pseudoknot (PK) RNA
Compound,NMR binding call (SARS-CoV-2 5_SL7 RNA),NMR binding call (SARS-CoV-2 5_SL8 RNA),NMR binding call [1],NMR binding call [2]
Cc1occc1C(=O)Nc1cc(C(C)(C)C)on1,0,0,0,0
COC(=O)c1ccc(NC(=O)C2CCCC2)cc1,0,0,0,0
CC(C)C(=O)N1CCC(Cc2ccccc2)CC1,0,0,0,0
CCOc1ccc(C(N)=O)cn1,0,0,0,0
Cn1ccc(C(=O)NCC2CCCO2)n1 (configuration not stated),0,0,0,0
CC(NC(=O)C1CCCC1)C(=O)O (configuration not stated),0,0,0,0
CC1(S(=O)(=O)N2CCC=C(F)C2)CC1,0,0,0,0
CCC1CCC(NCC2CCCO2)CC1 (configuration not stated),0,0,0,0
Clc1cccc(CN2CCOCC2)c1,0,0,0,0
CC1CCN(C(=O)c2cc3ccccc3o2)CC1,0,0,0,0
O=S1(=O)CCN(Cc2ccco2)CC1,0,0,0,0
Cl.O=C(O)CCN1CCCCC1,0,0,0,0
O=C(Nc1nnc[nH]1)c1cccnc1Cl,0,0,0,0
Cc1ccc(-c2noc(CNC(C)C)n2)cc1,1,0,0,0
CS(=O)(=O)Nc1ccc(-c2ccccc2)cc1,0,0,0,0
CC(=O)N1CCC(NCCc2ccccc2)CC1,0,0,0,0
CCOc1ccc(NC(=O)c2cnccn2)cc1,0,0,0,0
COc1ccc(NC2=NCCN2)cc1,0,0,0,0
Cn1ccc(NCc2ccccc2)n1,0,0,0,0
CN(C)C(=O)N1CCN(C(=O)N(C)C)CC1,0,0,0,0
CC(C)(C(N)=O)c1ccccc1,0,0,0,0
CCC(=O)Nc1c(C(N)=O)oc2ccccc12,0,0,0,0

Compound,NMR binding call (SARS-CoV-2 5_SL7 RNA),NMR binding call (SARS-CoV-2 5_SL8 RNA),NMR binding call [1],NMR binding call [2]
Nc1ncncc1-c1ccc(Cl)cc1,0,0,0,0
OCC1CCN(c2ncccn2)CC1,0,0,0,0
Cc1ccc(C(N)=O)c(F)c1,0,0,0,0
CNCc1cccc(OC)n1,0,0,0,0
CC1(C)CN(C(=O)CC(F)(F)F)CCO1,0,0,0,0
COc1ccc(CNC2CCCC2)cc1,0,0,0,0
COc1ccc(N2CC(C(N)=O)CC2=O)cc1 (configuration not stated),0,0,0,0
CCOC(=O)c1sc(N(C)C(C)=O)nc1C,0,0,0,0
COCc1nnc(N)s1,0,0,0,0
Fc1ccccc1CNc1cn[nH]c1,0,0,0,0
Cl.NC(=O)c1ccc2c(c1)CCN2,0,0,0,0
CC(=O)Nc1cc2c(cc1C)OCO2,0,0,0,0
Cc1noc(C(N)C(C)C)n1 (configuration not stated),0,0,0,0
OCc1ccc(-n2cnc3ccccc32)cc1,0,0,0,0
COc1ccc2sc(N)nc2c1,0,0,0,0
Oc1ncc(NCc2ccccc2)c(O)n1,0,0,0,0
COc1ccc(Cl)cc1C(=O)NCC(C)C,0,0,0,0
Cc1cc(C(=O)NC(C)C)nn1C,0,0,0,0
O=C(Nc1cccc(F)c1)c1cnccn1,0,0,0,0
CC(=O)Nc1cccc(F)c1C(=O)O,0,0,0,0
Cc1cccc(C(=O)NC(C)C2CC2)n1 (configuration not stated),0,0,0,0

# Filtered by structure, those above with a COOH group (3)
Compound,NMR binding call (SARS-CoV-2 5_SL7 RNA),NMR binding call (SARS-CoV-2 5_SL8 RNA),NMR binding call [1],NMR binding call [2]
CC(NC(=O)C1CCCC1)C(=O)O (configuration not stated),0,0,0,0
Cl.O=C(O)CCN1CCCCC1,0,0,0,0
CC(=O)Nc1cccc(F)c1C(=O)O,0,0,0,0
